Results deposited as PubChem BioAssay AID1159578 (Peter MacCallum Cancer Centre, 2015)
Here is a random part of about 18,000 reagents. Of all reagents, about 1,030 (5.7%) were called active. 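Inactive calls also include pools with fewer than 3300 nuclei, whose migration was not assessed.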 The raw values are shown without normalisation. The numbers tell different reagents against one gene apart.

Aim: 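Knock-downs that alter how fast lymphatic endothelial cells migrate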 (primary screen)
System: human lymphatic endothelial cells
Reagent: siRNA pool against human genes, 40 nM
Duration: 48 h after transfection
Measured: 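Cells stained with dye and imaged after a scratch; covered wound area and nuclei counted, duplicates averaged, migration set against mock wells and turned into a robust z-score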
Reading the numbers: migration robust z-score: higher = faster migration into the scratch; migration relative to mock: higher = more scratch area covered than mock; nuclei per well: higher = more cells in the well
Active means: 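Migration changed when robust z exceeds 2 or falls below -2 and mean nuclei number is at least 3300; otherwise not called changed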
Calls: active = migration changed; inactive = no migration change, or too few cells

target gene,pool no.,migration robust z-score,migration class with cell-count check,migration relative to mock,"nuclei per well, duplicate mean",Call
GDPD3 (glycerophosphodiester phosphodiesterase domain containing 3),1,0.83,migration z between -2 and 2; enough cells,0.96,5570,inactive
OXNAD1 (oxidoreductase NAD binding domain containing 1),1,1.82,migration z between -2 and 2; enough cells,1.16,6736,inactive
ATL3 (atlastin GTPase 3),1,-2.56,migration z below -2; enough cells,0.22,3700,active
GDF2 (growth differentiation factor 2),1,-1.85,migration z between -2 and 2; enough cells,0.45,4512,inactive
POU2F1 (POU class 2 homeobox 1),1,0.13,migration z between -2 and 2; enough cells,0.83,5660,inactive
SS18L1 (SS18L1 subunit of BAF chromatin remodeling complex),1,-0.6,migration z between -2 and 2; enough cells,0.73,5880,inactive
IL12RB1 (interleukin 12 receptor subunit beta 1),1,-0.46,migration z between -2 and 2; enough cells,0.72,3963,inactive
TSTD2 (thiosulfate sulfurtransferase like domain containing 2),1,-0.55,migration z between -2 and 2; enough cells,0.74,5972,inactive
CT47A7 (cancer/testis antigen family 47 member A7),1,-1.55,migration z between -2 and 2; enough cells,0.48,5099,inactive
RANGRF (RAN guanine nucleotide release factor),1,-0.3,migration z between -2 and 2; enough cells,0.8,5056,inactive
MED13 (mediator complex subunit 13),1,0.36,migration z between -2 and 2; enough cells,0.88,6099,inactive
ADK (adenosine kinase),1,-0.96,migration z between -2 and 2; enough cells,0.62,4393,inactive
OR10A3 (olfactory receptor family 10 subfamily A member 3),1,0.69,migration z between -2 and 2; enough cells,1.06,5298,inactive
DDR2 (discoidin domain receptor tyrosine kinase 2),1,0.24,migration z between -2 and 2; enough cells,0.85,6405,inactive
GUK1 (guanylate kinase 1),1,-1.01,migration z between -2 and 2; enough cells,0.61,4636,inactive
ELMOD2 (ELMO domain containing 2),1,-0.41,migration z between -2 and 2; enough cells,0.78,5970,inactive
CPLX2 (complexin 2),1,1.58,migration z between -2 and 2; enough cells,1.3,6118,inactive
C2CD3 (C2 domain containing 3 centriole elongation regulator),1,-1.17,migration z between -2 and 2; enough cells,0.58,6311,inactive
DTX4 (deltex E3 ubiquitin ligase 4),1,-0.26,migration z between -2 and 2; enough cells,0.76,5144,inactive
NFKBIE (NFKB inhibitor epsilon),1,-1.84,migration z between -2 and 2; enough cells,0.45,5384,inactive
HOXB8 (homeobox B8),1,-0.18,migration z between -2 and 2; enough cells,0.84,5437,inactive
CGB3 (chorionic gonadotropin subunit beta 3),1,1.07,migration z between -2 and 2; enough cells,1.17,5647,inactive
ARL3 (ARF like GTPase 3),1,1.24,migration z between -2 and 2; enough cells,1.21,6492,inactive
TTC17 (tetratricopeptide repeat domain 17),1,-1.48,migration z between -2 and 2; enough cells,0.51,4678,inactive
OCLN (occludin),1,0.31,migration z between -2 and 2; enough cells,0.86,5840,inactive
AZU1 (azurocidin 1),1,1.09,migration z between -2 and 2; enough cells,1.02,5476,inactive
PRAMEF2 (PRAME family member 2),1,1.45,migration z between -2 and 2; enough cells,1.26,5987,inactive
ABCA13 (ATP binding cassette subfamily A member 13),1,1.25,migration z between -2 and 2; enough cells,1.04,5676,inactive
COMMD7 (COMM domain containing 7),1,-0.32,migration z between -2 and 2; enough cells,0.8,4666,inactive
FER1L5 (fer-1 like family member 5),1,-0.48,migration z between -2 and 2; enough cells,0.76,5715,inactive
SRFBP1 (serum response factor binding protein 1),1,-1.27,migration z between -2 and 2; enough cells,0.55,6274,inactive
TRIM8 (tripartite motif containing 8),1,0.72,migration z between -2 and 2; enough cells,0.94,4707,inactive
PRAMEF9 (PRAME family member 9),1,-0.9,migration z between -2 and 2; enough cells,0.65,3944,inactive
OR52E4 (olfactory receptor family 52 subfamily E member 4),1,-0.28,migration z between -2 and 2; enough cells,0.82,4530,inactive
ATP1B2 (ATPase Na+/K+ transporting subunit beta 2),1,-1.6,migration z between -2 and 2; enough cells,0.5,4209,inactive
SUGCT (succinyl-CoA:glutarate-CoA transferase),1,0.13,migration z between -2 and 2; enough cells,0.92,5474,inactive
YEATS2 (YEATS domain containing 2),1,-0.45,migration z between -2 and 2; enough cells,0.77,5695,inactive
PEX14 (peroxisomal biogenesis factor 14),1,0.31,migration z between -2 and 2; enough cells,0.96,5735,inactive
UBE2U (ubiquitin conjugating enzyme E2 U),1,-0.73,migration z between -2 and 2; enough cells,0.66,5614,inactive
SUGP2 (SURP and G-patch domain containing 2),1,-0.22,migration z between -2 and 2; enough cells,0.84,7644,inactive
ELOVL4 (ELOVL fatty acid elongase 4),1,-0.73,migration z between -2 and 2; enough cells,0.66,3845,inactive
H2AC25 (H2A clustered histone 25),1,-0.12,migration z between -2 and 2; enough cells,0.85,5500,inactive
HSP90B1 (heat shock protein 90 beta family member 1),1,-1.01,migration z between -2 and 2; enough cells,0.61,5440,inactive
MRAP (melanocortin 2 receptor accessory protein),1,-0.08,migration z between -2 and 2; enough cells,0.86,6076,inactive
MICAL2,1,-3.21,migration z below -2; enough cells,0.18,5662,active
MICAL2,2,-1.65,migration z between -2 and 2; enough cells,0.45,4762,inactive
HSPA9 (heat shock protein family A (Hsp70) member 9),1,1.35,migration z between -2 and 2; enough cells,1.06,5965,inactive
PLA2G2E (phospholipase A2 group IIE),1,0.68,migration z between -2 and 2; enough cells,0.94,4896,inactive
NPHP3 (nephrocystin 3),1,-0.54,migration z between -2 and 2; enough cells,0.74,5112,inactive
SH3BGRL (SH3 domain binding glutamate rich protein like),1,0.19,migration z between -2 and 2; enough cells,0.93,5193,inactive
SNAP91 (synaptosome associated protein 91),1,1.07,migration z between -2 and 2; enough cells,1.17,6114,inactive
NR4A3 (nuclear receptor subfamily 4 group A member 3),1,1.38,migration z between -2 and 2; enough cells,1.07,5324,inactive
ZNF821 (zinc finger protein 821),1,-1.08,migration z between -2 and 2; enough cells,0.6,4832,inactive
DDX17 (DEAD-box helicase 17),1,0.98,migration z between -2 and 2; enough cells,1,5676,inactive
TMEFF2,1,0.49,migration z between -2 and 2; enough cells,1.02,7092,inactive
"RAB25 (RAB25, member RAS oncogene family)",1,0.46,migration z between -2 and 2; enough cells,1,5173,inactive
ZNF574 (zinc finger protein 574),1,-1.62,under 3300 nuclei; migration not judged,0.46,3186,inactive

Taken from above:
Result of RANGRF (RAN guanine nucleotide release factor) under “Call”: inactive
FER1L5 (fer-1 like family member 5), migration robust z-score = -0.48
Entry of TRIM8 (tripartite motif containing 8) under “migration class with cell-count check”: migration z between -2 and 2; enough cells
Result of SS18L1 (SS18L1 subunit of BAF chromatin remodeling complex) in “migration relative to mock”: 0.73
OR10A3 (olfactory receptor family 10 subfamily A member 3), migration class with cell-count check = migration z between -2 and 2; enough cells
YEATS2 (YEATS domain containing 2), migration relative to mock = 0.77
